Values quoted from earlier work as cited in US20100178334A1, “Oral Pharmaceutical Dosage Form Comprising as Active Ingredients a Proton Pump Inhibitor together with Acetyl Salicyclic Acid” (priority 2005, published 2010).
For at least one compound, name, drawing or mass did not settle the structure.

Tests used:
[1] = system: gastroduodenal lesions evoked by ASA; details: concomitant administration for patients treated with ASA; cited from earlier work
[2] = system: damages on the mucosa caused by ASA; details: concomitant administration for patients treated with ASA; cited from earlier work

SMILES	effect on gastroduodenal lesions evoked by ASA [1]	effect on damages on the mucosa caused by ASA [2]
COc1ccc2[nH]c([S+]([O-])Cc3ncc(C)c(OC)c3C)nc2c1 (centres unmarked) [omeprazole]	reduce gastroduodenal lesions evoked by ASA	–
CNC(=C[N+](=O)[O-])NCCSCc1ccc(CN(C)C)o1 [ranitidine]	–	reduce damages on the mucosa caused by ASA
